Measured values from PubChem BioAssay AID540256 (National Center for Advancing Translational Sciences (NCATS), 2011).
Hit rate of the full screen: of about 300,000 compounds, about 3,700 (1.2%) were called active. The inconclusive results got no clear call from the source; some entries with a clear call stand among them for comparison. The call rests on the fitted dose curve; tested in HEK293 cells. Where the call is inconclusive, the potency comes from a doubtful curve fit.

Assay: qHTS for Inhibitors of binding or entry into cells for Lassa Virus; further: nearly all actives have a fitted effect of over 50% in size
Details: Lassa virus pseudotype entry inhibition, cell reporter; series mostly up to 37.9 µM
Potency means the concentration at half of the fitted maximal effect.

| Structure (SMILES) | Potency |
| --- | --- |
| Cc1ccc(NC(=O)c2ccccc2)cc1-n1cnnn1 | inactive |
| COc1ccc(NC(=O)COc2cccnc2[N+](=O)[O-])cc1OC | inconclusive: 3.98 µM [inhibitor, single point] |
| Cc1ccc2oc(-c3cccc(NC(=S)NC(=O)/C=C/c4ccco4)c3)nc2c1 | inconclusive: 20 µM [inhibitor, single point] |
| CC1CCN(c2nc3c(c(=O)[nH]c(=O)n3C)n2CC(C)CSc2nnnn2-c2ccccc2)CC1 (centres undefined) | inconclusive: 17.8 µM [inhibitor, partial curve, poor fit] |
| Cc1ccc(C)c(N(CC(=O)NC2CCCC2)C(=O)CNC(=O)c2cccs2)c1 | inconclusive: 11.2 µM [inhibitor, partial curve, poor fit] |
| CCc1cc(C(=O)N2CCc3c([nH]c4ccccc34)C2c2ccc(OC)cc2F)no1 (centres undefined) | inconclusive: 2.24 µM [inhibitor, partial curve, poor fit] |
| Cc1cc2cc(CN(Cc3ccc4c(c3)OCO4)C(=O)c3cnccn3)c3nnnn3c2cc1C | inactive |
| FC(F)(F)c1ccc(N/N=C/c2cccnc2)nc1 | inactive |
| CCN(CC)C(=O)CSc1nc(C)cc(-c2cccs2)c1C#N | inconclusive: 29.1 µM [inhibitor, single point] |
| Cc1nc(C(F)(F)F)ccc1C(=O)NN1CCOCC1 | inconclusive: 0.891 µM [inhibitor, full curve, poor fit] |
| O=C(Nc1ccc(F)cc1)c1cccnc1NCCc1ccccc1 | inconclusive: 0.282 µM [activator, full curve, poor fit] |
| O=C(CCC(=O)N1CC2CCCN2c2ccccc21)NCc1cccc(Cl)c1 (centres undefined) | inconclusive: 35.5 µM [inhibitor, single point] |
| CC(/C=N/n1cnnc1)=C\c1ccccc1 | inactive |
| COc1ccc2oc(C(=O)NCCc3ccccc3)c(C)c2c1 | active: 0.891 µM |
| O=Cc1ccc(O)c2ncccc12 | inconclusive: 3.16 µM [inhibitor, single point] |
| CSc1ccccc1C(=O)N1CCN(c2cccc(Cl)c2)CC1 | active: 5.62 µM |
| CC1=CC(C)(C)NC(=S)N1c1cccc2ccccc12 | inactive |
| CCCC(c1nnnn1C1CCCCC1)N1CCN(C2CCCC2)CC1 (centres undefined) | inactive |
| O=C(Nc1nnc(-c2ccco2)o1)c1ccc2ccccc2c1 | inconclusive: 0.794 µM [inhibitor, full curve, poor fit] |
| NC(=O)CC[C@H](NC(=O)c1ccc(F)cc1)C(=O)OCC(=O)NCc1ccc(F)cc1 | inactive |
| COc1ccc(NC(=O)N2CCC(n3nnc4cc(C)ccc43)CC2)cc1 | inconclusive: 0.0891 µM [inhibitor, full curve, poor fit] |
| CC(C)C[C@H](NC(=O)C1(c2ccccc2)CCN(C(=O)[C@H]2CSCN2C(=O)OC(C)(C)C)CC1)C(=O)O | inactive |
| NC(=O)c1oc2ccccc2c1NC(=O)C1COc2ccccc2O1 (centres undefined) | inconclusive: 3.55 µM [activator, full curve, poor fit] |

| Structure (SMILES) | Potency |
| --- | --- |
| CN(C)CCCn1c2c3ccccc3ccc2c2oc(=O)c3ccccc3c21 | inconclusive: 1.78 µM [activator, partial curve, poor fit] |
| CC(C)c1ccc(N2C(=O)CC(Sc3ncn[nH]3)C2=O)cc1 (centres undefined) | inactive |
| O=C(COc1ccccc1)n1nc(-c2ccc(Cl)cc2)nc1NCc1ccco1 | inconclusive: 23.1 µM [inhibitor, partial curve, poor fit] |
| O=C(Nc1sc2c(c1C(=O)O)CCC2)c1ccc(F)cc1 | inconclusive: 11.2 µM [inhibitor, single point] |
| COc1ccc(N(CC(=O)N2CCN(c3cccc(C)c3)C(C)C2)S(=O)(=O)c2c(C)n[nH]c2C)cc1 (centres undefined) | inconclusive: 17.8 µM [inhibitor, single point] |
| Cc1cc(C)nc(NC(=O)NS(=O)(=O)Nc2ccc(Br)cn2)n1 | inactive |
| CCC1(c2ccccc2)NC(=O)N(CC(=O)Nc2ccc(N3CCCC3)cc2C)C1=O (centres undefined) | inconclusive: 11.2 µM [inhibitor, partial curve, poor fit] |
| Cc1nc(N2CCOCC2)c2c(C(=O)NCCc3ccccc3)c(C)oc2n1 | inconclusive: 11.2 µM [activator, single point] |
| Cc1ccc(-n2ncc3c(=O)n(CC(=O)NC4CCCCC4)cnc32)cc1C | inactive |
| COC(=O)C1=CN(CC2CCCO2)C=C(C(=O)OC)C1c1cccc(O)c1 (centres undefined) | inconclusive: 4.47 µM [inhibitor, partial curve, poor fit] |
| Cc1cc2c(cc1C)N(C(=O)CSC1=NCCS1)C(C)(C)c1ssc(=S)c1-2 | inactive |
| C/C(=N\Nc1ccccn1)c1ccc(C(C)C)cc1 | inactive |
| COc1cc(/C=C(\NC(C)=O)C(=O)NC(C)(C)C)ccc1OC(C)=O | inactive |
| CN(C)c1ccc(/C=C/C(=O)c2ccc3c(c2)OCO3)cc1 | inconclusive: 35.5 µM [inhibitor, single point] |
| Cc1cc(=O)oc2cc(OCC(=O)N3c4ccccc4NC(=O)C3(C)C)ccc12 | inactive |
| Cn1c(Cc2ccccc2)nnc1SCC(=O)Nc1ccc(N2CCOCC2)cc1 | inactive |
| COc1ccccc1NS(=O)(=O)c1cccc(C(=O)N2CCCCCC2)c1 | inconclusive: 15.8 µM [inhibitor, single point] |
| CC1CCN(C(=O)COc2coc(CN3CCc4ccccc43)cc2=O)CC1 | inconclusive: 2 µM [inhibitor, full curve, poor fit] |
| COCCN1C(=O)N[C@H](c2cccc(C(F)(F)F)c2)C(C(=O)OC)=C1C | inactive |
| CCCNC(=O)c1c(C)nn(-c2cccc(C)c2)c1-n1cccc1 | inconclusive: 14.1 µM [inhibitor, single point] |
| Cc1ccc(NC(=O)CNS(=O)(=O)c2cccs2)cc1F | inconclusive: 0.562 µM [activator, single point] |
| Cn1c(=O)c2c(nc(N3CCN(c4ccccc4)CC3)n2CCCc2ccccc2)n(C)c1=O | inconclusive: 2.51 µM [inhibitor, full curve, poor fit] |
| CCc1nn(C(C)C(=O)N2CCN(c3cccc(C(F)(F)F)c3)CC2)c(=O)c2cc3occc3n12 (centres undefined) | inactive |

| Structure (SMILES) | Potency |
| --- | --- |
| CSc1cnn(Cc2ccccc2)c(=O)c1SCc1ccccc1 | inconclusive: 16.4 µM [inhibitor, single point] |
| CCOC(=O)Cc1csc(NC(=O)c2cc3c(s2)CCCC3)n1 | inconclusive: 29.1 µM [inhibitor, single point] |
| O=C(Cn1c(=O)oc2cc(S(=O)(=O)N3CCCC3)ccc21)Nc1cccc(C(F)(F)F)c1 | inconclusive: 14.1 µM [inhibitor, single point] |
| CN(/N=C/c1ccncc1)C1=NS(=O)(=O)c2ccccc21 | inconclusive: 2.24 µM [inhibitor, partial curve, poor fit] |
| O=C(Nc1ccc2c(c1)oc1ccccc12)N1CCOCC1 | inconclusive: 2.51 µM [activator, partial curve, poor fit] |
| Cc1ccc(N(C(=O)c2csnn2)C(C(=O)NC2CCCCC2)c2ccccn2)c(C)c1 (centres undefined) | inactive |
| CCc1ccc(C2c3[nH]c4ccccc4c3CCN2C(=O)CN2CCN(CC)CC2)cc1 (centres undefined) | inconclusive: 3.98 µM [inhibitor, full curve, poor fit] |
| CCOC(=O)c1sc2nc(C)nc(NCCc3ccc(S(N)(=O)=O)cc3)c2c1C | inconclusive: 6.31 µM [inhibitor, single point] |
| CCN(CC)S(=O)(=O)c1ccc(NN=C2CCN(C)CC2)c([N+](=O)[O-])c1 | inconclusive: 35.5 µM [inhibitor, single point] |
| O=C1C(c2cc(=O)c3ccccc3[nH]2)=C(O)c2ccccc21 | inconclusive: 29.1 µM [inhibitor, single point] |
| O=C(CCS(=O)(=O)c1ccccc1)Nc1ccccn1 | inconclusive: 2.82 µM [activator, full curve] |
| Cc1cccc(NC(=O)CSc2n[nH]c(-c3ccncc3)n2)c1C | inactive |
| O=C(O)/C=C/C(=O)NNC(=O)c1cc(-c2ccccc2)n[nH]1 | inconclusive: 35.5 µM [inhibitor, single point] |
| Cc1ccc(NC(=O)CN(C)Cc2c(O)ccc3ccccc23)cc1 | inconclusive: 35.5 µM [inhibitor, single point] |
| O=C(CSc1nnc(-c2ccccc2)n1-c1ccccc1)c1cccs1 | inactive |
| Cc1nn(-c2ccc(Cl)cc2)c(=O)c2ccccc12 | inconclusive: 7.3 µM [activator, partial curve, poor fit] |
| O=C(COc1ncnc2cc(Cl)ccc12)c1ccc2c(c1)OCCO2 | inactive |
| Cc1ccc2c(c1)c1c(c(=O)n(-c3ccccc3C)c(=O)n1CC(=O)N1CCCC1)n2C | inactive |
| CCOC(=O)c1c(C)c(C(=O)Nc2ccc3c(c2)OCO3)c(C)n1C | inactive |
| Cn1cccc1Cc1nnc(SCC(=O)Nc2nc3ccccc3s2)n1CCc1ccccc1 | inconclusive: 20.6 µM [inhibitor, single point] |
| N#Cc1ccccc1NC(=O)c1ccc2c(Cl)c3c(nc2c1)CCCC3 | inconclusive: 1.26 µM [activator, single point] |
| COC(=O)c1ccc(C(=O)OC)c(NC(=O)Nc2ccc3c(c2)OCO3)c1 | inconclusive: 6.51 µM [activator, partial curve, poor fit] |
| Cc1nn2c(N)c(-c3ccccc3)cnc2c1-c1ccc(Cl)cc1 | inconclusive: 4.47 µM [activator, partial curve, poor fit] |

17 neighbouring compounds out of the list so far, quoted:

| Structure (SMILES) | Potency |
| --- | --- |
| CSc1cnn(Cc2ccccc2)c(=O)c1SCc1ccccc1 | inconclusive: 16.4 µM [inhibitor, single point] |
| CCOC(=O)Cc1csc(NC(=O)c2cc3c(s2)CCCC3)n1 | inconclusive: 29.1 µM [inhibitor, single point] |
| O=C(Cn1c(=O)oc2cc(S(=O)(=O)N3CCCC3)ccc21)Nc1cccc(C(F)(F)F)c1 | inconclusive: 14.1 µM [inhibitor, single point] |
| CN(/N=C/c1ccncc1)C1=NS(=O)(=O)c2ccccc21 | inconclusive: 2.24 µM [inhibitor, partial curve, poor fit] |
| O=C(Nc1ccc2c(c1)oc1ccccc12)N1CCOCC1 | inconclusive: 2.51 µM [activator, partial curve, poor fit] |
| Cc1ccc(N(C(=O)c2csnn2)C(C(=O)NC2CCCCC2)c2ccccn2)c(C)c1 (centres undefined) | inactive |
| CCc1ccc(C2c3[nH]c4ccccc4c3CCN2C(=O)CN2CCN(CC)CC2)cc1 (centres undefined) | inconclusive: 3.98 µM [inhibitor, full curve, poor fit] |
| CCOC(=O)c1sc2nc(C)nc(NCCc3ccc(S(N)(=O)=O)cc3)c2c1C | inconclusive: 6.31 µM [inhibitor, single point] |
| CCN(CC)S(=O)(=O)c1ccc(NN=C2CCN(C)CC2)c([N+](=O)[O-])c1 | inconclusive: 35.5 µM [inhibitor, single point] |
| O=C1C(c2cc(=O)c3ccccc3[nH]2)=C(O)c2ccccc21 | inconclusive: 29.1 µM [inhibitor, single point] |
| O=C(CCS(=O)(=O)c1ccccc1)Nc1ccccn1 | inconclusive: 2.82 µM [activator, full curve] |
| Cc1cccc(NC(=O)CSc2n[nH]c(-c3ccncc3)n2)c1C | inactive |
| O=C(O)/C=C/C(=O)NNC(=O)c1cc(-c2ccccc2)n[nH]1 | inconclusive: 35.5 µM [inhibitor, single point] |
| Cc1ccc(NC(=O)CN(C)Cc2c(O)ccc3ccccc23)cc1 | inconclusive: 35.5 µM [inhibitor, single point] |
| O=C(CSc1nnc(-c2ccccc2)n1-c1ccccc1)c1cccs1 | inactive |
| Cc1nn(-c2ccc(Cl)cc2)c(=O)c2ccccc12 | inconclusive: 7.3 µM [activator, partial curve, poor fit] |
| O=C(COc1ncnc2cc(Cl)ccc12)c1ccc2c(c1)OCCO2 | inactive |
